Here are results for 5 substances from US20120021973A1 (priority 2008, published 2012).

This data set is described as follows: general procedure: Fmoc solid-phase peptide synthesis; Fmoc-Rink amide AM resin (0.71 mmol/g, Novabiochem); HBTU/HOBt/DIPEA. Particulars: TFA salt; for isolated mass / isolated yield: whole synthesis.
Setting [1] is: scale of the general procedure 0.25 mmol or 1.0 mmol.

Consider “(2-{2-[2-(2-{2-[16-(tetrazol-5-yl)hexadecanoylamino]ethoxy}ethoxy)acetylamino]ethoxy}ethoxy)acetyl-Gly-D-Ser-Gln-Ser-Ser-Gln-His-Lys-Nle-c[Glu-Hyp-D-Phe-Arg-Trp-Lys]-NH2”, for which, where the note is “scale 0.25 mmol”, the isolated mass came to 50 mg and the isolated yield was 8%.

On to “(2-{2-[16-(Tetrazol-5-yl)hexadecanoylamino]ethoxy}ethoxy)acetyl-Gly-Ser-Gln-Ser-Lys(biscarboxymethyl)-Nle-c[Glu-Hyp-D-Phe-Arg-Trp-Lys]-NH2”, for which the isolated mass was determined as 45 mg. Also, the isolated yield under setting [1] worked out at 9%.

In the case of “[2-{2-[16-(tetrazol-5-yl)hexadecanoylamino]ethoxy}ethoxy]acetyl-Gly-Ser-Gln-His-β-Dap-Nle-c[Glu-Hyp-D-Phe-Arg-Trp-Lys]-NH2”, the step yield (late stage modification step) was 13%.

Take “(2-{2-[16-(Tetrazol-5-yl)hexadecanoylamino]ethoxy}ethoxy)acetyl-Gly-Ser-Gln-Ser-Dap(BCMA)-Nle-c[Glu-Hyp-D-Phe-Arg-Trp-Lys]-NH2”: the isolated mass stood at 56 mg. In addition, the isolated yield under setting [1] is on record as 11%.

On to “(2-{2-[16-(Tetrazol-5-yl)hexadecanoylamino]ethoxy}ethoxy)acetyl-Gly-Ser-Gln-His-Lys(BCMA)-Nle-c[Glu-Hyp-D-Phe-Arg-Trp-Lys]-NH2”, for which the isolated yield (nitrogen-specific HPLC detector, scale 0.25 mmol) stood at 13%. Further, the isolated mass (scale 0.25 mmol) was 72 mg.
